Results reported in US20210301261A1, “HUMAN LIVER MICROPHYSIOLOGY PLATFORM AND SELF ASSEMBLY LIVER ACINUS MODEL AND METHODS OF THEIR USE” (priority 2014, published 2021).

Tested on: hepatocyte sentinel cells
Test: Statistical validation of biosensors in hepatocyte sentinel cells in microplates
Assay type: cell-based, human
Text: A panel of biosensors was delivered through lentiviral transduction in multiple fluorescent protein colors initially validated in microplates for an acute response. An SSMD level of ≥2 is considered a statistically valid response.

CC1=CC(=O)c2ccccc2C1=O [Menadione]
>2: SSMD, Mitochondrial Calcium Uptake biosensor (50 μM, at 4.5 hr) | SSMD, Reactive Oxygen Species in Mito. biosensor (100 μM, at 2.5 hr) | SSMD, Cytochrome C Release: Apoptosis biosensor (100 μM, at 5 hr)
